Measurements taken from publication doi:10.1101/2022.03.08.483537.
No constants are given. Whether binding was seen depends on the method and setting. Binding seen in cells or lysates may run through a third protein. Some results given as binding are weak or reduced against the parent protein; the word gives no strength.

Protein sequences, listed by entry. Tags and fused reporters are not part of them.
UniProt Q9WTL8: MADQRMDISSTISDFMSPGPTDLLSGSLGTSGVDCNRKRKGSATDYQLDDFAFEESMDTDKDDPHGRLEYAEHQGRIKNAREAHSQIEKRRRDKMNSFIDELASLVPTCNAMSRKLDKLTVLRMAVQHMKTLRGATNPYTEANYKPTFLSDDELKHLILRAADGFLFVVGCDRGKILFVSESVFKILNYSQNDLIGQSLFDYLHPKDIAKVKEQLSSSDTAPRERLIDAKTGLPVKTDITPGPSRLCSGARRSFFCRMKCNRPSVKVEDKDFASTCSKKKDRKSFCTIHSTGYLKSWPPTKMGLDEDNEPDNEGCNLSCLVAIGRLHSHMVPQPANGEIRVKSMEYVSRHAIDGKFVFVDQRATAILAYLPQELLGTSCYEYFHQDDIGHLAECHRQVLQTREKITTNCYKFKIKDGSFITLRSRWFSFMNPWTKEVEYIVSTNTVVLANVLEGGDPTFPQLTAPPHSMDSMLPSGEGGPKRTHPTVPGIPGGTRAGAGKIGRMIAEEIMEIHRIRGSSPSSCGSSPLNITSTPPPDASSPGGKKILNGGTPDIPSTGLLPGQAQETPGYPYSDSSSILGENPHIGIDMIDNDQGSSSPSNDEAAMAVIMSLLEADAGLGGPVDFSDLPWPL

Biological target: BMAL1 (mouse (endogenous in mIEC)) (UniProt Q9WTL8)
Test: co-IP

- binding: binds
B1: CLOCK (protein, UniProt O08785 1-855)
chain: MVFTVSCSKMSSIVDRDDSSIFDGLVEEDDKDKAKRVSRNKSEKKRRDQFNVLIKELGSMLPGNARKMDKSTVLQKSIDFLRKHKETTAQSDASEIRQDWKPTFLSNEEFTQLMLEALDGFFLAIMTDGSIIYVSESVTSLLEHLPSDLVDQSIFNFIPEGEHSEVYKILSTHLLESDSLTPEYLKSKNQLEFCCHMLRGTIDPKEPSTYEYVRFIGNFKSLTSVSTSTHNGFEGTIQRTHRPSYEDRVCFVATVRLATPQFIKEMCTVEEPNEEFTSRHSLEWKFLFLDHRAPPIIGYLPFEVLGTSGYDYYHVDDLENLAKCHEHLMQYGKGKSCYYRFLTKGQQWIWLQTHYYITYHQWNSRPEFIVCTHTVVSYAEVRAERRRELGIEESLPETAADKSQDSGSDNRINTVSLKEALERFDHSPTPSASSRSSRKSSHTAVSDPSSTPTKIPTDTSTPPRQHLPAHEKMTQRRSSFSSQSINSQSVGPSLTQPAMSQAANLPIPQGMSQFQFSAQLGAMQHLKDQLEQRTRMIEANIHRQQEELRKIQEQLQMVHGQGLQMFLQQSNPGLNFGSVQLSSGNSNIQQLTPVNMQGQVVPANQVQSGHISTGQHMIQQQTLQSTSTQQSQQSVMSGHSQQTSLPSQTPSTLTAPLYNTMVISQPAAGSMVQIPSSMPQNSTQSATVTTFTQDRQIRFSQGQQLVTKLVTAPVACGAVMVPSTMLMGQVVTAYPTFATQQQQAQTLSVTQQQQQQQQQPPQQQQQQQQSSQEQQLPSVQQPAQAQLGQPPQQFLQTSRLLHGNPSTQLILSAAFPLQQSTFPPSHHQQHQPQQQQQLPRHRTDSLTDPSKVQPQ
